The values below come from article PMC9887599, “Synthesis, Optical Properties, and Antiproliferative Evaluation of NBD-Triterpene Fluorescent Probes” (Journal of Natural Products, 2022).

The subject of the data set is B16-F10, HT-29, and HepG2 cells. The data set can be described thus: Cellular uptake and distribution by confocal microscopy. To be noted: at IC50 concentrations, 30 min to 24 h. Format: cell-based, mouse, human.

In the case of `CC1(C)CC[C@]2(C(=O)O)CC[C@]3(C)C(=CC[C@@H]4[C@@]5(C)CC[C@H](OC(=O)CCCCCNc6ccc([N+](=O)[O-])c7nonc67)C(C)(C)[C@@H]5CC[C@]43C)[C@@H]2C1` [Compound 1, 3β-((6-((7-Nitrobenzo[c][1,2,5]oxadiazol-4-yl)amino)hexanoyl)oxy)olean-12-en-28-oic Acid], the “uptake and subcellular distribution of green fluorescence” value is “cytoplasmic distribution”. For `CC1(C)CC[C@]2(C(=O)O)CC[C@]3(C)C(=CC[C@@H]4[C@@]5(C)C[C@@H](OC(=O)CCCCCNc6ccc([N+](=O)[O-])c7nonc67)[C@H](O)C(C)(C)[C@@H]5CC[C@]43C)[C@@H]2C1` [Compound 2, 3β-Hydroxy-2α-((6-((7-nitrobenzo[c][1,2,5]oxadiazol-4-yl)amino)hexanoyl)oxy)olean-12-en-28-oic Acid] the value was “cytoplasmic distribution”.
